Measurements: PubChem BioAssay AID1508600 (Functional Genomics Laboratory (NCATS/FGL), 2020)
The whole screen tested about 53,000 sequences, of which about 3,700 (7%) were called active.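 Rule for the calls: active = gene knockdowns whose robust z-score for IL-1 alpha signal is at least 2 or at most -2, so actives lie on both sides; inactive = the rest.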 Some of the results follow.

Assay: Components of the Cytosolic LPS Sensing Pathway: Gene Identification via Genome-wide siRNA Screen;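 note: robust z of the log signal after scaling to non-targeting control siRNA wells of the plate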
Settings: RAW264.7 macrophages, IL-1a HTRF, actives lie on both sides, screened at 100 nM (by protocol), cells primed 5 h with Pam3CSK4 first
Procedure, shortened: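 IL-1a HTRF of supernatants after 24 hour LipidA transfection of Pam3CSK4-primed (5 hours) RAW264.7 cells, 48h post-siRNA transfection (100 nM). Scores: percent of plate negative-control median, then log-based robust z-score.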

| Sequence | z-score |
| --- | --- |
| GCUUUUCAGUCUCAUAGUGTT against Huwe1 | inactive: 0.468 |
| GGCCUUUAUCCGGAACAUATT against Zfp454 | inactive: 0.168 |
| GCGGUGACAUCAUGAUCCATT against Bop1 | inactive: -0.752 |
| CCAGGCUAUUUGUAUGCUGTT against Usp54 | inactive: 0.605 |
| GGACUUCUUCGAUUGUUCUTT against Chchd1 | inactive: 0.475 |
| CGAGAAGAUGUGUAUGUCGTT against Mkrn2 | inactive: -0.571 |
| GCCGCCCUUACCCUAUUUATT against Tceal1 | inactive: 1.4 |
| GCCAAGAGUUUAGCACUUUTT against Acrbp | inactive: 0.272 |
| CCCUUAAUAGACUUCUGAUTT against Chmp1b | inactive: -0.161 |
| GGAAAGCUUCAGAAUCUAATT against Bckdk | inactive: -0.365 |
| GGGAUUAAUAUCAUACCGATT against Slc30a5 | inactive: -1.33 |
| GCAUCAAUUCCCAAACCUUTT against Selenov | inactive: -0.0263 |
| GGAGUAUCUGCGUUAUCUUTT against Tsnaxip1 | inactive: 0.0053 |
| GGAUCAAAUUCUACCUUAGTT against Tbc1d5 | inactive: -0.595 |
| GGAAAACUAUGCAGGCAUCTT against Capn2 | inactive: 0.117 |
| CCAUCAUGAACACUCAACATT against Olfr462 | active: -2.59 |
| GGUGUUAGGGCUCAAAUAUTT against Glce | inactive: 1.17 |
| GCUAAUCGGAUGCUGAAGCTT against Psmb7 | inactive: 0.71 |
| CCUGGCACUCAUAGUAUACTT against Tm6sf2 | active: -2.33 |
| GGCCAUAGUCCUGUUCACCTT against Nr2f2 | inactive: 0.492 |
| GGACAGAUCUUUGAAGCAGTT against Vps18 | inactive: -1.7 |
| GGAGAACAGUAACAUUUUUTT against Pcdh7 | inactive: 0.673 |

| Sequence | z-score |
| --- | --- |
| GGGCCUUCAGAAGAACAUGTT against Ganab | inactive: -1.56 |
| CCUUGGAGUGAAGGAUCGCTT against Cited1 | inactive: 0.608 |
| CCCUUAGGAAUUGAAUAUGTT against Cspp1 | inactive: 0.509 |
| GGACAGUCUGCUCAUCGACTT against Ripor1 | inactive: -0.6 |
| GGAGACAUUGUCCUCUACATT against Car14 | inactive: -0.722 |
| CGGAUUUUAAAAGGUCACGTT against Vti1a | inactive: -0.816 |
| GGCGGAGAAUCACCUCACATT against Tgfbrap1 | inactive: -1.51 |
| GGUAACUUCAUGUGCAGCATT against Ldlrad3 | inactive: -1.71 |
| GCCUUUCUUCUAUUCACUATT against Degs2 | inactive: -1.71 |
| GGUCAAGUGUCUGAACAACTT against Fkbp8 | inactive: 0.875 |
| GGAGACAUUCCAAAUGAGATT against Zfp688 | inactive: 1.01 |
| GGUCAAGUCAGCAUUCCUGTT against Hspbp1 | inactive: -1.78 |
| GGAAACCGUUUUUUUUUUCTT against Appbp2 | active: 2.16 |
| CCAUAUCCCUGUGGAAAAGTT against Manf | inactive: -0.322 |
| GUUUCCUCAAUGUCUCAGUTT against Olfr1461 | inactive: 0.672 |
| GGAGCUGAAUGUGUUUCGGTT against Best2 | inactive: -0.805 |
| GGGUGCUCUGGACAUGUUGTT against Dcxr | inactive: -0.166 |
| GGCCCAGAUAAAUAACAUGTT against Kpna1 | inactive: 0.468 |
| GGUGCAACCAGUGUGUGAUTT against St6galnac6 | active: 4.22 |
| GCAUCUACUCCCUAUAGACTT against Nin | inactive: 0.322 |
| GGAGACUUAUAACAUGUUUTT against Habp2 | active: 2.19 |
| GGAUUUGAGUUGAAGCGUGTT against Zscan20 | inactive: -0.129 |

| Sequence | z-score |
| --- | --- |
| GGAAGUAAAAUUUGACAUGTT against Il1a | inactive: -1.42 |
| GCCCUAUAUAUCAUUCUAGTT against Rhoa | inactive: 1.12 |
| UUCUACUGGGCUUAACCAGTT against Olfr1032 | inactive: 1.86 |
| CCAAUGGUGUGGUCUGUAATT against Olfr572 | inactive: -1.7 |
| GGUCUUCACUGUCGACUACTT against Cpne7 | inactive: 0.643 |
| GCCUGGAAUCUCUUCAUGUTT against Pde3a | inactive: 0.679 |
| GGACAUUUUAGUUGUCUUGTT against Slc38a4 | inactive: -0.607 |
| GGAGAUCAUUGAAUACUACTT against Sec14l1 | inactive: 0.811 |
| CCUGCUAGAGCCAUUAUUGTT against Memo1 | inactive: -1.61 |
| GCUUUAGAACAGAGGGUUATT against Scd4 | inactive: 0.989 |
| GCCGUCCAACACUUGAUUGTT against Rttn | inactive: 0.509 |
| CGGCUCGUAGUUUAUUAAATT against Ccnk | inactive: -0.411 |
| GGCCUAAUUCCACCUUUGCTT against Etv4 | inactive: 0.0765 |
| GCAGAUACUAGAGUUGUUUTT against Tent2 | inactive: -0.0277 |
| CGUAAACAUUUCCUUCUACTT against Dmbt1 | inactive: -0.718 |
| GGUUUCUGUGCAUUAGGAATT against Slc35e3 | inactive: 1.96 |
| CCUUUGACGGCCAUGAGUATT against Muc6 | inactive: -1.39 |
| GGCAGAGAAGGAGAAACAGTT against Hmg20b | inactive: -0.35 |
| GAACUGGGCCUAGAACUUGTT against Aspdh | inactive: -0.481 |
| CGGUUUCUUACCAGCAAUUTT against Mgmt | inactive: -0.237 |
| CGACUUUGGAGAAUUUCAATT against Synrg | inactive: -0.573 |
| CGACACCAUUCAGAUUGAUTT against Rps4x | inactive: -0.119 |

Copied from the listing (5 entries):

| Sequence | z-score |
| --- | --- |
| GCUAAUCGGAUGCUGAAGCTT against Psmb7 | inactive: 0.71 |
| CCUGGCACUCAUAGUAUACTT against Tm6sf2 | active: -2.33 |
| GGCCAUAGUCCUGUUCACCTT against Nr2f2 | inactive: 0.492 |
| GGACAGAUCUUUGAAGCAGTT against Vps18 | inactive: -1.7 |
| GGAGAACAGUAACAUUUUUTT against Pcdh7 | inactive: 0.673 |

Next part.

| Sequence | z-score |
| --- | --- |
| GGCAGCAAGGAAACUAUUATT against Kpna3 | inactive: 1.39 |
| GGCUCUGUGGCAAUCUUGUTT against Olfr1225 | inactive: -1.07 |
| CCAUGACUACCUGCCUCUGTT against Vwa5b2 | inactive: 0.144 |
| GGAUAAUUUUGGAAGCAGATT against Rheb | inactive: -0.299 |
| GGACACUAUCCCAUUUCUATT against Slc7a15 | inactive: -0.368 |
| GCCAUACCUUCAACUGUCGTT against Ncoa2 | active: -2.42 |
| CCAAGGACGGCCUUACACUTT against Spout1 | inactive: 0.356 |
| GGUGUUUGAUAAUGAAGAGTT against Dnah1 | inactive: -0.214 |
| CCGAAGUGGACGAAUACUUTT against Csrnp3 | inactive: 0.207 |
| GGAGGUCAUCAACGUGCUATT against Nucb1 | inactive: -0.339 |
| GGUGAGCUGAAAUGAGGUGTT against H2-DMb1 | inactive: 0.571 |
| GGAGAUAAAGGCUCUCUUCTT against Tmem234 | inactive: 1.61 |
| GGAAGAUAGGAGCUACAAATT against Mr1 | inactive: -0.553 |
| CGAUUCAGAUUGCACUUGUTT against Katnb1 | inactive: 0.198 |
| GCCUAGCUUUCUUGUAUUATT against Tas2r144 | inactive: -1.41 |
| GGCUAAACCUACAAUAUGUTT against Tox3 | inactive: -1.3 |
| GGAAAACCAGCUAAUUAUCTT against Ptger3 | inactive: -0.23 |
| CGACUUCGCCUUAUGAGAUTT against Tst | inactive: -1.19 |
| GGAUUCUGUUCAACAUUGGTT against Olfr1148 | inactive: 1.97 |
| CCAAGCUUCCUUCUAAAUATT against Lin52 | inactive: 0.669 |
| GGAGGAUACACAGAGGCAUTT against Tcap | inactive: -1.68 |
| CGGCAGUGGAACAAUAGACTT against Capsl | inactive: 1.89 |

| Sequence | z-score |
| --- | --- |
| CCAUAUACCCUCGAUGCCATT against Abhd16b | active: -2.76 |
| GCUUGAAUAUGAGAACGAATT against Deup1 | inactive: -0.451 |
| GGAAAAGGCUACGGCAUUUTT against Tapbp | inactive: -1.01 |
| CCAUCCUUCCAAUUAUGAATT against Rhot1 | inactive: -0.0332 |
| GCUCUGCCUUCAGAUGAUCTT against Olfr172 | inactive: -0.592 |
| GGUGUUGCUGGUGAAGGACTT against Aifm3 | inactive: -0.965 |
| GGCAUGUGGAAAACCUCCUTT against Lrrc46 | inactive: -0.413 |
| GCACAGAGGUCAGUUAAAGTT against St8sia3 | inactive: 1 |
| GGAACACUGGAUUAUUGAGTT against Gamt | inactive: 0.326 |
| GGCUAGUGGAACACUUUAGTT against Zfp846 | inactive: -0.682 |
| GGGAGAAAUGCAAAUAUUUTT against Mbnl2 | inactive: -0.37 |
| GCUCUAGAAAGUUACAGAUTT against Crtam | inactive: 0.317 |
| GCUUCCACGUGUUUGACCATT against Hsf1 | inactive: -0.4 |
| GGAAAAGCUAAUAAAAGCUTT against Ptgis | inactive: 0.649 |
| GGCGACAUUCUCAUCCUAATT against Slc38a1 | inactive: -1.45 |
| CCAAGACCCAAACUUACUGTT against Tnnt3 | inactive: -0.368 |
| GCAAGUCCAUUCUUUUUCATT against Tmprss11g | inactive: -0.643 |
| GGUUCUCAUAACGACCAAUTT against Ddx25 | inactive: -0.0618 |
| GGGAGUAUCCAUUCAAGCCTT against Ube2l6 | inactive: 0.722 |
